From publication PMC5997793
Results are given in words; binding and its absence hold for the method and conditions named. Binding seen in cells or lysates may run through a third protein. Some binding calls cover weakened binding; strength is not graded here.

Sequences of proteins named here, by UniProt entry; tags and fusion partners are left off. A change or cut given only in a name is not applied to a line headed by its entry.
UniProt Q15788: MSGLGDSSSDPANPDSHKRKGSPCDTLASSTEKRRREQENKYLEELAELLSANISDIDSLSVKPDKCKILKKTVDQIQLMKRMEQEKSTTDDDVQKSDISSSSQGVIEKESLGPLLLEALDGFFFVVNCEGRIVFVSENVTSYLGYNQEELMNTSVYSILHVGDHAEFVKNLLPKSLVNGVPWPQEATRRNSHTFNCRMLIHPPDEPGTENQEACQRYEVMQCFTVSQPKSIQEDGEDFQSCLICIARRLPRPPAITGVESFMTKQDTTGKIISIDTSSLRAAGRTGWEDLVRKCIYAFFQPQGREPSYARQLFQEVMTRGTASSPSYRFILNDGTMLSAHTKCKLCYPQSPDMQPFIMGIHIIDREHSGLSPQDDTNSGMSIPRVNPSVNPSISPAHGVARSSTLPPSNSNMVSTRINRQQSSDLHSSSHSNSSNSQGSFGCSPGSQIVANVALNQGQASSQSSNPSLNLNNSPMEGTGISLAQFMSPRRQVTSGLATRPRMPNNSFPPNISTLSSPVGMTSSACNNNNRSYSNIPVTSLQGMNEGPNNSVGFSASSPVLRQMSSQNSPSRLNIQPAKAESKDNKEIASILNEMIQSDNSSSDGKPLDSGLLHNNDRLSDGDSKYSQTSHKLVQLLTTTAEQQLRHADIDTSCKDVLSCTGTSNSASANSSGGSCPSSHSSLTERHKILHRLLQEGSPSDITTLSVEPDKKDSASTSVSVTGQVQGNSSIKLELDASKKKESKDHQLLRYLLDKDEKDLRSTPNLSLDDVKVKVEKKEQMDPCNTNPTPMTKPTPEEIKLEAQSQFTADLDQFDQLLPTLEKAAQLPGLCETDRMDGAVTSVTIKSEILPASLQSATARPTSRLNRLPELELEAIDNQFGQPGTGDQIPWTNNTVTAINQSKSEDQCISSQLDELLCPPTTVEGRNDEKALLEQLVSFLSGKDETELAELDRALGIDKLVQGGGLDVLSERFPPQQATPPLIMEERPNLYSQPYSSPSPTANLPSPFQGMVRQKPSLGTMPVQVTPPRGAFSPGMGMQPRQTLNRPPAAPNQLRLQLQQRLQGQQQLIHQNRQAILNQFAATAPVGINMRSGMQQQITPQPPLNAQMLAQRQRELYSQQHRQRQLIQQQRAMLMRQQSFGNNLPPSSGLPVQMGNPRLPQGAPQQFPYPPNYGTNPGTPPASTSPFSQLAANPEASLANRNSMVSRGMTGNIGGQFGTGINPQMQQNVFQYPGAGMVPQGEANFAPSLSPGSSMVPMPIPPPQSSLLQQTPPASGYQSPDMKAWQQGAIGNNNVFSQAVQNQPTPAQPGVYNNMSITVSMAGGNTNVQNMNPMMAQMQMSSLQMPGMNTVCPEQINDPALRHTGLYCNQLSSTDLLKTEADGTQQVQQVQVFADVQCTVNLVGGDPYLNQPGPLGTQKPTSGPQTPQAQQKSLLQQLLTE
UniProt Q04206: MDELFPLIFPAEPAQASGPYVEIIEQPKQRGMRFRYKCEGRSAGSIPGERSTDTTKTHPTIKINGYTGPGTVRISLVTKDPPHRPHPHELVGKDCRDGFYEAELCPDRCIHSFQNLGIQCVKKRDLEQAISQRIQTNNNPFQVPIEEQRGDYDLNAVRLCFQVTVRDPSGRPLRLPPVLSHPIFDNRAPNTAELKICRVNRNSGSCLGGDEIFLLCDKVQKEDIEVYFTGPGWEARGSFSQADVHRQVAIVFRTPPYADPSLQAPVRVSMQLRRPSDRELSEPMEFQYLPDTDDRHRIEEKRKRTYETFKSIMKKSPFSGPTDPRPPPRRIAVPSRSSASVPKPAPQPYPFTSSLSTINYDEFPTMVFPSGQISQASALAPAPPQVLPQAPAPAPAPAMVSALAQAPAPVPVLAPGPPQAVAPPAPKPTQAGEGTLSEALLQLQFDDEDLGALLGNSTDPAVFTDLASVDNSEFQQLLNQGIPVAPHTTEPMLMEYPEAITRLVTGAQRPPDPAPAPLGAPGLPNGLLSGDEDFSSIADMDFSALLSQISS

Target: Steroid receptor coactivator-1 (human (endogenous in TPC-1)) (UniProt Q15788)
Assay: co-IP; TPC-1 cells crosslinked with 1% formaldehyde at room temperature, sonicated; anti-SRC-1 mAb plus Protein G Sepharose added to the lysate, overnight at 4°C; washed three times; Western blot with anti-p65, anti-p50 and anti-SRC-1 mAbs

Question: “NF-kB (p65/p50) complex (from UniProt Q04206 1-551; P19838 1-433)” was tested. Which binding did it give?
Answer: Its binding is “binds”.
